Results reported in the supplement of paper PMC10032668.
Some of the results follow. The list holds hits alone, and they repeat only in part.

Sequences of proteins named here, by UniProt entry; tags and fusion partners are left off.
HSP90AB2P, Q58FF8, UniProt Q58FF8, whole entry: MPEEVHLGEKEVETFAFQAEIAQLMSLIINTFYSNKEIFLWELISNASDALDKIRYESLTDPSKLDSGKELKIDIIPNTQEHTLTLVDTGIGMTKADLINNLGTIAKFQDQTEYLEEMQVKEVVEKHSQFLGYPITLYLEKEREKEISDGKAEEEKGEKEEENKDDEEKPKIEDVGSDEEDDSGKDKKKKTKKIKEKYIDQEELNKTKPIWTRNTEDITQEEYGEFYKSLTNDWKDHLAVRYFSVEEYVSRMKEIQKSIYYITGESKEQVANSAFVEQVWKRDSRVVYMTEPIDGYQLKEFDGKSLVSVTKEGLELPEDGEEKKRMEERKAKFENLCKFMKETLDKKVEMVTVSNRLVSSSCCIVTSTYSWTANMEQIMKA
PHAX, Q9H814, UniProt Q9H814, whole entry: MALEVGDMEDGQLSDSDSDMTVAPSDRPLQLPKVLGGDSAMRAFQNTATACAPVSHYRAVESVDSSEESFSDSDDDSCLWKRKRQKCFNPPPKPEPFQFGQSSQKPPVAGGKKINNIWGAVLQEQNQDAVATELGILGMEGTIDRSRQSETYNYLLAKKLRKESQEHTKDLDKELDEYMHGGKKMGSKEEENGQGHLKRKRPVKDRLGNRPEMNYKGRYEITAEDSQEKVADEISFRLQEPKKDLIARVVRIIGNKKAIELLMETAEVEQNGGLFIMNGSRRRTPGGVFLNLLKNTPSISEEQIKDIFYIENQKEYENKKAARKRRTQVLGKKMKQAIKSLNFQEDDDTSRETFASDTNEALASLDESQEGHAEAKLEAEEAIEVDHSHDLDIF
SNRPC, P09234, UniProt P09234, whole entry: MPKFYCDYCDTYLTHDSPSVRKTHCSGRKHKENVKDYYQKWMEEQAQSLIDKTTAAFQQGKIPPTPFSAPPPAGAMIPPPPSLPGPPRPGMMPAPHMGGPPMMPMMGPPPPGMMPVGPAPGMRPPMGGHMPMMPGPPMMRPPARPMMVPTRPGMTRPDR
CHTF18, Q8WVB6, UniProt Q8WVB6, whole entry: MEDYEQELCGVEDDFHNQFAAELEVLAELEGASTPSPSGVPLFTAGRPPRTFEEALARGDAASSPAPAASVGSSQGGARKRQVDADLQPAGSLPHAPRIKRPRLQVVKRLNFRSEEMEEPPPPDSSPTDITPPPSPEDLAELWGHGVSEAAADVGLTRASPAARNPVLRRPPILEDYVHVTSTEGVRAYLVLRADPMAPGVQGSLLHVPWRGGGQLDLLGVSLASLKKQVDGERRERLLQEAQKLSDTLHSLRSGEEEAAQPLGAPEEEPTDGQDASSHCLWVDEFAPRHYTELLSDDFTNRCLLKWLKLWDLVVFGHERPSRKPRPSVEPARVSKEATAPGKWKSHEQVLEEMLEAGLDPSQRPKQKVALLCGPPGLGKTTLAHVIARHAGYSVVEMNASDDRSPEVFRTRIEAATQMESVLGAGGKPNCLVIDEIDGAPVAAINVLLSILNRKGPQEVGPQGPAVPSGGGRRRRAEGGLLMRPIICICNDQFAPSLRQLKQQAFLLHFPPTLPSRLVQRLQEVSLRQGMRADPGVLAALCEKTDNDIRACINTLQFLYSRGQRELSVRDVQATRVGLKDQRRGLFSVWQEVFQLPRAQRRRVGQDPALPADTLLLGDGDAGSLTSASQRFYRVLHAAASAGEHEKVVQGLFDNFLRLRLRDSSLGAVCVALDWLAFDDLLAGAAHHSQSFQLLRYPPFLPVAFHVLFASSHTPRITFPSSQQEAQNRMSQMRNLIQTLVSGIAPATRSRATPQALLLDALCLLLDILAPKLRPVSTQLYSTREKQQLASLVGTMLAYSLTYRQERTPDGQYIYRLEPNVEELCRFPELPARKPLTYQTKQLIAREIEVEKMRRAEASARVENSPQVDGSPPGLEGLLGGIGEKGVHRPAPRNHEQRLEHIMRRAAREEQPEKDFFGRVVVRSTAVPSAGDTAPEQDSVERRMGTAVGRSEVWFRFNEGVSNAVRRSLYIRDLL
RFC2, P35250, UniProt P35250, whole entry: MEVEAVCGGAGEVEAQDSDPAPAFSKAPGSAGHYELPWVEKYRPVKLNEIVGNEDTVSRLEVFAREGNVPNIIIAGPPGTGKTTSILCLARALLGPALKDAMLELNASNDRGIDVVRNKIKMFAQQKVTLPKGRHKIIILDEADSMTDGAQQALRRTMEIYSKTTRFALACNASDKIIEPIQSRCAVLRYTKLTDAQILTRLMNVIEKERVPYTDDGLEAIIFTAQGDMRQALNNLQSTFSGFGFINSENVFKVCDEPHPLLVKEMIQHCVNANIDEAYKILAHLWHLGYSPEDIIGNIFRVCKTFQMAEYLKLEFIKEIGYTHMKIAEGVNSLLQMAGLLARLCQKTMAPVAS

Assays:
Assay in all cases: PRISMA enrichment of interactor (LFQ) in peptide spot vs all other peptide spots (log2 fold change); higher = stronger / more specific binding of the interactor to the peptide
BOLA3, Q53S33 = target: BOLA3, Q53S33
Procedure: (§1)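 PRISMA: 15-aa overlapping tiles (offset 8 aa) of 60 microproteins, plus SOS1/GLUT1 control peptides, were spot-synthesized on cellulose membranes in triplicate. Membranes were incubated with benzonase-treated HEK293T lysate, and bound proteins were identified by LC-MS/MS with LFQ. Enrichment is the log2 fold change of each protein in one spot versus all other spots. Only interactors passing the significance cutoff are listed.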

C19orf53, Q9UNZ5 = target: C19orf53, Q9UNZ5
Procedure: as §1

CDKN2AIPNL, Q96HQ2 = target: CDKN2AIPNL, Q96HQ2
Procedure: as §1

CSRP2, Q16527 = target: CSRP2, Q16527
Procedure: as §1

DDX42, Q86XP3 = target: DDX42, Q86XP3
Procedure: as §1

DDX5, P17844 = target: DDX5, P17844
Procedure: as §1

G3BP2, Q9UN86 = target: G3BP2, Q9UN86
Procedure: as §1

HSP90AB2P, Q58FF8 = target: HSP90AB2P, Q58FF8
Procedure: as §1

MRPL27, Q9P0M9 = target: MRPL27, Q9P0M9
Procedure: as §1

PHAX, Q9H814 = target: PHAX, Q9H814
Procedure: as §1

PUS1, Q9Y606 = target: PUS1, Q9Y606
Procedure: as §1

TXNDC5, Q8NBS9 = target: TXNDC5, Q8NBS9
Procedure: as §1

ITCH, Q96J02 = target: ITCH, Q96J02
Procedure: as §1

PSMG1, O95456 = target: PSMG1, O95456
Procedure: as §1

TUBAL3, A6NHL2 = target: TUBAL3, A6NHL2
Procedure: as §1

ZMAT2, Q96NC0 = target: ZMAT2, Q96NC0
Procedure: as §1

BPTF, Q12830 = target: BPTF, Q12830
Procedure: as §1

CHMP1A, Q9HD42 = target: CHMP1A, Q9HD42
Procedure: as §1

CLNS1A, P54105 = target: CLNS1A, P54105
Procedure: as §1

MRPL1, Q9BYD6 = target: MRPL1, Q9BYD6
Procedure: as §1

NEFM, P07197 = target: NEFM, P07197
Procedure: as §1

NIBAN2, Q96TA1 = target: NIBAN2, Q96TA1
Procedure: as §1

PKP2, Q99959 = target: PKP2, Q99959
Procedure: as §1

SNRPC, P09234 = target: SNRPC, P09234
Procedure: as §1

UTP11, Q9Y3A2 = target: UTP11, Q9Y3A2
Procedure: as §1

CD2BP2, O95400 = target: CD2BP2, O95400
Procedure: as §1

CHTF18, Q8WVB6 = target: CHTF18, Q8WVB6
Procedure: as §1

FAM133B, Q5BKY9 = target: FAM133B, Q5BKY9
Procedure: as §1

FBXO45, P0C2W1 = target: FBXO45, P0C2W1
Procedure: as §1

GATAD2A, Q86YP4 = target: GATAD2A, Q86YP4
Procedure: as §1

HOXD13, P35453 = target: HOXD13, P35453
Procedure: as §1

LEO1, Q8WVC0 = target: LEO1, Q8WVC0
Procedure: as §1

MKRN2, Q9H000 = target: MKRN2, Q9H000
Procedure: as §1

MPST, P25325 = target: MPST, P25325
Procedure: as §1

NUFIP2, Q7Z417 = target: NUFIP2, Q7Z417
Procedure: as §1

POLR2J3, Q9H1A7 = target: POLR2J3, Q9H1A7
Procedure: as §1

RFC2, P35250 = target: RFC2, P35250
Procedure: as §1

SGTA, O43765 = target: SGTA, O43765
Procedure: as §1

SNX2, O60749 = target: SNX2, O60749
Procedure: as §1

## DMCFLLSWINVSTWA [RP11-432J24.5_2]
BOLA3, Q53S33
  PRISMA enrichment of interactor (log2): 4.5
C19orf53, Q9UNZ5
  PRISMA enrichment of interactor (log2): 5.83
CDKN2AIPNL, Q96HQ2
  PRISMA enrichment of interactor (log2): 4.31
CSRP2, Q16527
  PRISMA enrichment of interactor (log2): 4.93
DDX42, Q86XP3
  PRISMA enrichment of interactor (log2): 5.75
DDX5, P17844
  PRISMA enrichment of interactor (log2): 6.6
G3BP2, Q9UN86
  PRISMA enrichment of interactor (log2): 5.13
HSP90AB2P, Q58FF8
  PRISMA enrichment of interactor (log2): 4.97
MRPL27, Q9P0M9
  PRISMA enrichment of interactor (log2): 6.62
PHAX, Q9H814
  PRISMA enrichment of interactor (log2): 4.84
PUS1, Q9Y606
  PRISMA enrichment of interactor (log2): 4.76
TXNDC5, Q8NBS9
  PRISMA enrichment of interactor (log2): 6.67

## SERSVFSLWFLSPAS [TBX5-AS1]
BOLA3, Q53S33
  PRISMA enrichment of interactor (log2): 4.21
DDX5, P17844
  PRISMA enrichment of interactor (log2): 5.97
ITCH, Q96J02
  PRISMA enrichment of interactor (log2): 4.19
PSMG1, O95456
  PRISMA enrichment of interactor (log2): 4.19
TUBAL3, A6NHL2
  PRISMA enrichment of interactor (log2): 4.17
ZMAT2, Q96NC0
  PRISMA enrichment of interactor (log2): 4.23

## CLILKLKKLSWKTER [RP11-620J15.3]
BPTF, Q12830
  PRISMA enrichment of interactor (log2): 4.45
CHMP1A, Q9HD42
  PRISMA enrichment of interactor (log2): 4.82
CLNS1A, P54105
  PRISMA enrichment of interactor (log2): 5.09
MRPL1, Q9BYD6
  PRISMA enrichment of interactor (log2): 4.36
NEFM, P07197
  PRISMA enrichment of interactor (log2): 4.01
NIBAN2, Q96TA1
  PRISMA enrichment of interactor (log2): 5.44
PKP2, Q99959
  PRISMA enrichment of interactor (log2): 4.25
SNRPC, P09234
  PRISMA enrichment of interactor (log2): 5.08
UTP11, Q9Y3A2
  PRISMA enrichment of interactor (log2): 6.15

## DGAVSLSFQSRKRIL [SNHG16]
BPTF, Q12830
  PRISMA enrichment of interactor (log2): 5.68
CD2BP2, O95400
  PRISMA enrichment of interactor (log2): 4.32
CHTF18, Q8WVB6
  PRISMA enrichment of interactor (log2): 4.06
FAM133B, Q5BKY9
  PRISMA enrichment of interactor (log2): 4.45
FBXO45, P0C2W1
  PRISMA enrichment of interactor (log2): 5.49
GATAD2A, Q86YP4
  PRISMA enrichment of interactor (log2): 5.79
HOXD13, P35453
  PRISMA enrichment of interactor (log2): 4.34
LEO1, Q8WVC0
  PRISMA enrichment of interactor (log2): 5.24
MKRN2, Q9H000
  PRISMA enrichment of interactor (log2): 4.27
MPST, P25325
  PRISMA enrichment of interactor (log2): 4.44
NEFM, P07197
  PRISMA enrichment of interactor (log2): 8.58
NUFIP2, Q7Z417
  PRISMA enrichment of interactor (log2): 4.96
POLR2J3, Q9H1A7
  PRISMA enrichment of interactor (log2): 5.06
RFC2, P35250
  PRISMA enrichment of interactor (log2): 4.76
SGTA, O43765
  PRISMA enrichment of interactor (log2): 5.08
SNX2, O60749
  PRISMA enrichment of interactor (log2): 6.32
